These are yes or no findings as the source states them, for the method shown. Binding seen in cells or lysates may run through a third protein. A result given as binding can be weak or reduced; the word gives no strength. Where a sequence is shown, tags or fusion partners need not be part of it.
T1: N. tabacum peroxidase, BiFC fusion (N. tabacum)
T1 sequence: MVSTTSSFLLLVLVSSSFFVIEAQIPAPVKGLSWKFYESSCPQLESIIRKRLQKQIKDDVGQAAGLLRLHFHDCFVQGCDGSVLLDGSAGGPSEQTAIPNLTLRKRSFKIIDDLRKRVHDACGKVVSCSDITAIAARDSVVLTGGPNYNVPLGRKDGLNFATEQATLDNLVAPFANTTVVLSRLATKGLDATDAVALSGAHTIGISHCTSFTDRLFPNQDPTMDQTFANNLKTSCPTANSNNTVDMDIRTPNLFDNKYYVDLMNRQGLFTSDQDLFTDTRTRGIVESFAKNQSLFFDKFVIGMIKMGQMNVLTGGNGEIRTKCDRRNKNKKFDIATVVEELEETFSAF

T2: cauliflower mosaic virus (CaMV) movement protein, BiFC fusion (cauliflower mosaic virus) (UniProt P03545)
T2 sequence: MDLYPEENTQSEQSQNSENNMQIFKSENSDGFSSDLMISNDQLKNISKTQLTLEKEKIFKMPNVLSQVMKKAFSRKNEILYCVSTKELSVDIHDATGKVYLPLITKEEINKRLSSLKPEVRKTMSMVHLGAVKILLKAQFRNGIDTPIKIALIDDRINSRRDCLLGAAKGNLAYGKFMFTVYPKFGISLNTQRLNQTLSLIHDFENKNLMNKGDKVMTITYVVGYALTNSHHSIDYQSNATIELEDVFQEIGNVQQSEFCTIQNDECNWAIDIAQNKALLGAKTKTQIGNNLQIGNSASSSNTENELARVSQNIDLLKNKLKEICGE

T3: cucumber mosaic virus (CMV) movement protein, BiFC fusion (cucumber mosaic virus) (UniProt Q00271)
T3 sequence: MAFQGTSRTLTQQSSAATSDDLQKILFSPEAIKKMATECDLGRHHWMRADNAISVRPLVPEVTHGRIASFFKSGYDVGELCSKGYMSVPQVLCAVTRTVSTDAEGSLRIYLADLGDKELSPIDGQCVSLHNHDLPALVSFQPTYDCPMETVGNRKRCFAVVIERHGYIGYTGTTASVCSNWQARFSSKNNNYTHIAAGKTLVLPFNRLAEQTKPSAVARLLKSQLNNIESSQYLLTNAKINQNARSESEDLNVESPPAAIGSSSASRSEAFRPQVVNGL

B1: N. tabacum 14-3-3A protein, BiFC fusion (protein, UniProt A0ABD8EQ38 1-255)
chain: MASPREENVYLAKLAEQAERYEEMVEFMEKVVGAGDDELTVEERNLLSVAYKNVIGARRASWRIISSIEQKEESRGNEDHVASIKTYRSKIESELTSICNGILKLLDSKLIGTAATGDSKVFYLKMKGDYYRYLAEFKTGAERKEAAENTLSAYKSAQDIANVELAPTHPIRLGLALNFSVFYYEILNSPDRACNLAKQAFDEAIAELDTLGEESYKDSTLIMQLLRDNLTLWTSDMQDDGTDEIKEPSKAEEQQ
B2: N. tabacum peroxidase, BiFC fusion (protein, UniProt A0A1S4BIW4 1-348)
chain: T1 sequence

How the values were obtained:
Assay in all cases: split reporter; BiFC with NtGFP and CtGFP fragments of EGFP fused at the N- or C-terminus of each protein; co-agroinfiltration of N. benthamiana leaves (OD600 0.4, mixed in equal proportions); confocal microscopy
[1] = target: T1, N. tabacum peroxidase, BiFC fusion (N. tabacum)
[2] = target: T2, cauliflower mosaic virus (CaMV) movement protein, BiFC fusion (cauliflower mosaic virus)
[3] = target: T3, cucumber mosaic virus (CMV) movement protein, BiFC fusion (cucumber mosaic virus)
[4] = target: N. tabacum eukaryotic initiation factor 4A, BiFC fusion (N. tabacum)
[5] = target: cowpea mosaic virus (CPMV) movement protein, BiFC fusion (cowpea mosaic virus)

Molecule | binding [1] | binding [2] | binding [3] | binding [4] | binding [5]
N. tabacum eukaryotic initiation factor 4A, BiFC fusion | binds | binds | binds | – | –
B1 | – | – | – | binds | binds
B2 | – | – | – | – | no binding
